No constants are given. Whether binding was seen depends on the method and setting. Binding seen in cells or lysates may run through a third protein. Some binding calls cover weakened binding; strength is not graded here.

Protein sequences, listed by entry. Tags and fused reporters are not part of them. Lines headed by an entry give the natural chain unless they say otherwise; changes in a name come on top.
UniProt Q93009: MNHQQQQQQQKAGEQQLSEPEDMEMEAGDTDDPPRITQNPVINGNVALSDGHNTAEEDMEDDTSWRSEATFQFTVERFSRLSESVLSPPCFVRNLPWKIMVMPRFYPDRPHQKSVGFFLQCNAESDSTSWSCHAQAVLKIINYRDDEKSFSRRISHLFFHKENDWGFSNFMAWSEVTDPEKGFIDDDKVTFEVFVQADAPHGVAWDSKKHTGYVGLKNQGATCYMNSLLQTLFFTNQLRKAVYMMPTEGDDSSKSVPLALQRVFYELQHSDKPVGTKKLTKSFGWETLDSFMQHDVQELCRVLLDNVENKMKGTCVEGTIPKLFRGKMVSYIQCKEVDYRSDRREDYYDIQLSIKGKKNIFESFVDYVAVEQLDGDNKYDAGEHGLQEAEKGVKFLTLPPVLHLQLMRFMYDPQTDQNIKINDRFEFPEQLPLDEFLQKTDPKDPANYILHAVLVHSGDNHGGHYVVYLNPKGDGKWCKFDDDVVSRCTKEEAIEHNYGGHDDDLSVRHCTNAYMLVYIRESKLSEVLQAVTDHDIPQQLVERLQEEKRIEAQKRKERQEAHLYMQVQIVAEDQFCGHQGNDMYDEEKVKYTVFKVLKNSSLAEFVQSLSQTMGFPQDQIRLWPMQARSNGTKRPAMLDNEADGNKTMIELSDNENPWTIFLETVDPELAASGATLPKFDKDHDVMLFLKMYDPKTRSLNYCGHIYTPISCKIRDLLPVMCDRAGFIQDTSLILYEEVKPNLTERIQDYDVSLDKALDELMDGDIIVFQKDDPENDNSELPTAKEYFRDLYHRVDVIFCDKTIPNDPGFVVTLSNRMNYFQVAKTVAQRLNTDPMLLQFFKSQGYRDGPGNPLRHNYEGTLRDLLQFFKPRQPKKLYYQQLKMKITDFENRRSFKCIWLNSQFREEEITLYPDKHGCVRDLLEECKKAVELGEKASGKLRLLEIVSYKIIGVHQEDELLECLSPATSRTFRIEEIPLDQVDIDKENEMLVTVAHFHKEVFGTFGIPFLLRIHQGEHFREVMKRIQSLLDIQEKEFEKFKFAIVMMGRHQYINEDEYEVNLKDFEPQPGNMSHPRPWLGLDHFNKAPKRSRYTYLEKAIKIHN
UniProt Q15910: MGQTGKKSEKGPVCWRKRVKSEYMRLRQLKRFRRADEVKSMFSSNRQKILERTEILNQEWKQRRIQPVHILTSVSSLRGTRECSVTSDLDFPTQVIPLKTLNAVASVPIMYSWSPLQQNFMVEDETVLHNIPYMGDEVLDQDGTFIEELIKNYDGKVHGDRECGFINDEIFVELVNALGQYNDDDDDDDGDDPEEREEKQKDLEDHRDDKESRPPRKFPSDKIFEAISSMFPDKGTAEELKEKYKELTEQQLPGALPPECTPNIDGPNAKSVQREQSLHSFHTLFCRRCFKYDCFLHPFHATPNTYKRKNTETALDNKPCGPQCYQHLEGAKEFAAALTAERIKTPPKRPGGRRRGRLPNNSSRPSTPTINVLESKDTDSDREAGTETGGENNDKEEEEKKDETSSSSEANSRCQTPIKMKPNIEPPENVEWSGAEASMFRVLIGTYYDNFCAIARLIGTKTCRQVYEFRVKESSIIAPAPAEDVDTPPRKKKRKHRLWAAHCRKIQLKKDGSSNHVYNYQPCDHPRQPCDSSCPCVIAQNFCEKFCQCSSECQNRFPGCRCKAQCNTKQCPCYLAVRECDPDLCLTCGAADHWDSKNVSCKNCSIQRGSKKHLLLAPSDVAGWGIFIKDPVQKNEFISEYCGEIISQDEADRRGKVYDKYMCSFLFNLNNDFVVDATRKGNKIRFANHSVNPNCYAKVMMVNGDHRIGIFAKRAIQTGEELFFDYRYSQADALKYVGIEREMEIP
UniProt Q9H9B1: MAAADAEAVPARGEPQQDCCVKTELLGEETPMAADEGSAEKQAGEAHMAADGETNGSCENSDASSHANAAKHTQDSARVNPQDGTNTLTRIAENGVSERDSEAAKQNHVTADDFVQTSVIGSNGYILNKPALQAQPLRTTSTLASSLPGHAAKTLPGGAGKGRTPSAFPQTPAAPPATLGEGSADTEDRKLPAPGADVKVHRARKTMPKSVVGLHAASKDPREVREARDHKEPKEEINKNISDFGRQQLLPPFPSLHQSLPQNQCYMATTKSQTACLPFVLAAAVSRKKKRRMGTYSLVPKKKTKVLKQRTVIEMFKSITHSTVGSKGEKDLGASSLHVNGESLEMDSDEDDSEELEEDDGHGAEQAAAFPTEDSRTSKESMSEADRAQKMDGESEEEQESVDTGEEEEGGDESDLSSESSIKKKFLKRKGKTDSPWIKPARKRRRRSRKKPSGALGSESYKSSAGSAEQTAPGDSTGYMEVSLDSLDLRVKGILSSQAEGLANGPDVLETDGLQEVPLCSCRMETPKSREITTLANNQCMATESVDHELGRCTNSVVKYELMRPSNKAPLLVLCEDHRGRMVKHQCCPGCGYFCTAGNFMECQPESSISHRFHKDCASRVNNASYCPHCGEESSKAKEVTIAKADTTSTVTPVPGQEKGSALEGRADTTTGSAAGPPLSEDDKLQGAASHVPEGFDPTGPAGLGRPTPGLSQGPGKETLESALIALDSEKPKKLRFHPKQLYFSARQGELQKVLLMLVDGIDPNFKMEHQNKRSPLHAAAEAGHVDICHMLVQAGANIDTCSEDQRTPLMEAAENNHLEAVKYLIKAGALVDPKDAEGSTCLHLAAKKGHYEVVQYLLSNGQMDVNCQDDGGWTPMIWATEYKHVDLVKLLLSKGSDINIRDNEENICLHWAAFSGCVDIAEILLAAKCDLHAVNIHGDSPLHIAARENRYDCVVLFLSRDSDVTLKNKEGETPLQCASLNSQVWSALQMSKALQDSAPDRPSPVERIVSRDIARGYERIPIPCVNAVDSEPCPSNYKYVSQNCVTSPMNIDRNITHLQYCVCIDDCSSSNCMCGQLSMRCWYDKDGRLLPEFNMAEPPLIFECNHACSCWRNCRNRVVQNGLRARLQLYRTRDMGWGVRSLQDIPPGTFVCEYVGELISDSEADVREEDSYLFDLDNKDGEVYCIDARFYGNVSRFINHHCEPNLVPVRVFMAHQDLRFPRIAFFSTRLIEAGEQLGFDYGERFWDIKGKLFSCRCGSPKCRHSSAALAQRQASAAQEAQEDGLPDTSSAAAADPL

Drawing on publication PMC7252518, this text covers binding for three substances.

The target in assay [1] is USP7 as used in the immunoprecipitation test of histone-modifying enzymes (Figure S1) (UniProt Q93009). As to the kind of experiment: co-IP; immunoprecipitation assay of several histone-modifying enzymes with USP7 (Figure S1A and B); details not shown.
The target of assay [2] is HA-EZH2 Y111L (therapy-resistant mutant) (UniProt Q15910). As to the kind of experiment: co-IP; Flag-USP7 co-expressed in HEK293T cells with HA-tagged EZH2 mutants; lysates immunoprecipitated with HA antibody, immunoblotted with anti-Flag or anti-HA. Background: A western blot detects proteins with antibodies after separation by electrophoresis.
In assay [3] the target is HA-EZH2 Y641N/Y661D (therapy-resistant mutant) (UniProt Q15910). Described as above.
Assay [4] addresses EZH2, endogenous in DU145 cells (human (endogenous in DU145)) (UniProt Q15910). As to the kind of experiment: co-IP; endogenous proteins; DU145 cell lysates immunoprecipitated with normal IgG or anti-EZH2 antibody, immunoblotted with anti-USP7 or anti-EZH2.

With “GLP1 (from UniProt Q9H9B1 1-1298) (enzyme)”, the binding result in assay [1] was “binds”.

For “Flag-USP7 (ubiquitin-specific protease 7, wild type) (from UniProt Q93009 1-1102) (enzyme)”, the binding entry in assay [2] and in assay [3] was “binds” in each case.

For the substance “USP7, endogenous in DU145 cells (from UniProt Q93009 1-1102) (enzyme)”, the binding result in assay [4] was “binds”.
